Measurements: the odorant receptor screen of Mainland et al. (2015)
Where “and” joins values, the source holds several entries; their conditions need not be identical. Equal entries are not always repeated. The list shows a part of the results. Single wells; the ratio to wells without odorant was worked out here, and repeats agree poorly.

How the values were obtained:
Assay in all cases: odorant receptor activation (CRE luciferase / Renilla) (fold of no-odor wells); higher = more activation
Settings in all cases: 100 µM
[1] = tested on: OR2A2 F280L clone 1541
[2] = tested on: OR2A2 clone 1476
[3] = tested on: OR2A25 clone 1387
[4] = tested on: OR2A4 clone 1386
[5] = tested on: OR2A42 clone 1565
[6] = tested on: OR2A5 clone 1437
[7] = tested on: OR2A7 clone 1077
[8] = tested on: OR2A7 clone 1543
[9] = tested on: OR2AE1 I77T clone 1079
[10] = tested on: OR2AG1 clone 1112
[11] = tested on: OR2AG2 Y28C/R54P/R299G clone 1486
[12] = tested on: OR2AJ1 M1V clone 1448
[13] = tested on: OR2AK2 V188M clone 1415
[14] = tested on: OR2AP1 clone 1256
[15] = tested on: OR2AT4 clone 1522
[16] = tested on: OR2B11 clone 1418
[17] = tested on: OR2B2 clone 1333
[18] = tested on: OR2B2 clone 1544
[19] = tested on: OR2B3 clone 1063
[20] = tested on: OR2B6 clone 1436

SMILES | odorant receptor activation [1] | odorant receptor activation [2] | odorant receptor activation [3] | odorant receptor activation [4] | odorant receptor activation [5] | odorant receptor activation [6] | odorant receptor activation [7] | odorant receptor activation [8] | odorant receptor activation [9] | odorant receptor activation [10] | odorant receptor activation [11] | odorant receptor activation [12] | odorant receptor activation [13] | odorant receptor activation [14] | odorant receptor activation [15] | odorant receptor activation [16] | odorant receptor activation [17] | odorant receptor activation [18] | odorant receptor activation [19] | odorant receptor activation [20]
O=CCc1ccccc1 [phenyl acetaldehyde] | 1.13 | 1.28 | 1.96 | 2.26 | 1.58 | 1.9 | 1.21 | 1.07 | 1.21 | 1.03 | 0.979 | 1.55 | 1.4 | 1.08 | 1.33 | 1.68 | 1.05 | 1.35 | 1.26 | 1.47
C=C(C)C1CCC2=CC(=O)CC(C)C2(C)C1 (stereo unspecified) [amyl laurate] |  |  |  |  | 1.52 |  |  |  |  |  |  |  |  |  |  |  |  |  |  | 
CC1CCC(C(C)C)C(O)C1 (single isomer, unassigned; (-)) [(-)-menthol] | 3.57 | 3.99 | 0.853 | 0.739 | 0.588 | 0.628 | 3.54 | 2.9 | 18.1 | 8.64 | 3.68 | 0.899 | 0.957 | 0.758 | 1.23 | 0.727 | 0.973 | 4.17 | 9.45 | 1.46
CC(C)(O)CCCC1=CCC(C=O)CC1 (stereo unspecified) [lyral] |  |  |  |  | 0.947 |  |  |  |  |  |  |  |  |  |  |  |  |  |  | 
CCCCCCC=O [heptaldehyde] | 1.02 and 1.49 |  | 0.997 and 0.814 | 0.877 and 0.879 | 0.976 | 1.17 and 0.86 | 0.549 and 1.06 | 0.972 and 0.756 | 2.29 and 1.11 | 0.622 and 1.37 |  | 1.05 and 0.745 and 0.797 | 1.1 and 0.762 | 0.736 and 0.651 and 0.884 |  | 1.03 and 0.75 | 0.394 and 1.18 and 0.906 | 0.864 and 0.806 | 1.15 and 1 | 0.971 and 0.706
C=CCSCC=C [diallyl sulfide] | 1.18 | 1.43 | 0.907 | 1.21 | 0.785 | 1.28 | 0.811 | 1.21 | 1.13 | 1.01 | 1.39 | 1.04 | 1.11 | 0.903 | 1.34 | 0.914 | 1.15 | 1.59 | 0.895 | 1.45
CC(C)(C)c1ccc(CCC=O)cc1 [bourgeonal] | 1 | 1.02 | 0.181 | 0.167 |  | 0.232 | 0.655 | 0.851 | 0.724 | 0.846 | 0.935 | 0.122 | 0.218 | 0.632 | 0.899 | 0.3 | 0.574 | 0.871 | 1.03 | 0.139
CC12C=CCC1C1CCC3CC(=O)CCC3(C)C1CC2 (stereo unspecified) [androstenone] | 1.36 | 1.04 | 1.12 | 1.52 |  | 0.635 | 1.44 | 0.906 | 12.8 | 5.42 | 1.14 | 1.17 | 0.982 | 1.17 | 1.27 | 1.37 | 1.07 | 1.27 | 5.31 | 1.6
CC(C)=CCCC(C)=CC=O [citral] | 1.07 | 1.25 | 0.275 | 0.22 | 1.17 | 0.337 | 0.934 | 0.904 | 1.08 | 0.921 | 0.792 | 0.171 | 0.223 | 1.03 | 1.09 | 0.354 | 1.07 | 0.973 | 1.13 | 0.297
C=CCc1ccc(O)c(OC)c1 [eugenol] | 1.2 | 1.38 and 1.04 and 1.5 | 1.8 and 1.5 | 1.14 and 1.56 | 1.03 | 1.57 and 1.49 | 0.675 and 1.32 | 1.16 | 1.13 and 1.49 | 0.975 and 1.38 | 2.56 and 1.14 and 1.36 | 2.01 and 0.834 and 1.34 | 1.21 and 1.53 | 1.57 and 1.34 | 1.8 and 1.35 and 1.67 | 1.11 and 1.04 | 2.27 and 1.43 | 1.43 | 1.02 and 1.27 | 1.42 and 1.38
COc1cc(C)ccc1O [2-methoxy-4-methylphenol] | 0.845 | 0.915 | 1.36 | 1.04 | 0.522 | 0.89 | 1.26 | 0.872 | 13.1 | 5.96 | 0.773 | 0.845 | 0.802 | 0.8 | 0.937 | 1.57 | 1.3 | 1.02 | 4.7 | 1.21
CC(C)C(=O)O [isobutyric acid] | 1.17 and 0.871 | 1.19 and 0.877 | 0.758 | 0.714 | 1.12 | 0.769 | 0.855 | 1.02 and 0.712 | 1.6 | 1.38 | 0.815 and 0.95 | 0.771 | 0.781 | 0.915 and 0.705 | 1.23 and 0.808 | 0.858 | 1.04 and 0.832 | 1.07 and 0.711 | 0.752 | 0.646
COC(=O)c1ccccc1 [methyl benzoate] |  | 0.75 and 1.12 | 0.822 | 0.707 |  | 0.827 | 0.982 |  | 2.92 | 1.26 | 1 and 1.06 | 1.15 and 0.842 | 0.797 | 0.579 | 1.34 and 1.09 | 0.497 | 0.692 |  | 1.99 | 0.844
CCCCCOC(C)=O [n-amyl acetate] |  | 0.588 and 0.978 | 0.759 | 0.685 | 1.19 | 1.17 | 0.873 |  | 1.85 | 0.776 | 0.962 and 0.946 | 0.989 and 0.8 | 0.776 | 0.692 | 1.1 and 0.774 | 0.547 | 0.476 |  | 2.09 | 0.99
CCCCCC(C)=O [2-heptanone] |  | 1.16 and 0.796 | 0.91 | 0.785 |  | 0.985 | 0.393 |  | 0.568 | 0.672 | 0.99 and 0.668 | 0.838 and 0.573 | 0.998 | 1.69 | 0.91 and 0.673 | 0.63 | 1.29 |  | 0.576 | 1
CCCCCCOC(=O)CCC [hexyl butyrate] | 1.08 and 1.12 | 0.846 and 0.819 | 0.814 | 0.783 | 0.954 | 0.886 | 0.918 | 0.977 and 0.743 | 0.708 | 0.867 | 0.784 and 0.872 | 0.962 | 0.758 | 1.45 and 0.645 | 1.07 and 1.26 | 0.749 | 1.14 and 0.825 | 0.881 and 0.808 | 0.58 | 0.826

Some values from the entries so far.
CC(C)(C)c1ccc(CCC=O)cc1 [bourgeonal] – odorant receptor activation [18]: 0.871
COc1cc(C)ccc1O [2-methoxy-4-methylphenol] – odorant receptor activation [1]: 0.845
